Measured values from patent US20210205199A1 (RPM Dermatologie, priority 2016, published 2021).

Assay: general procedure: Fmoc solid-phase peptide synthesis; Wang resin precharged with Fmoc-Pro; HOBT/DIC
Conditions: whole synthesis, HPLC and mass spectrometry

Substance: Lauroyl-SDKP-OH
- final HPLC purity: more than 90%

*: point of attachment. Lauroyl = CCCCCCCCCCCC(=O)*
